Assay results published in patent US20190233542A1.
These are yes or no findings as the source states them, for the method shown. Some binding calls cover weakened binding; strength is not graded here.

Sequences of proteins named here, by UniProt entry; tags and fusion partners are left off. Residues count along the entry.
UniProt Q8NBP7, residues 31-692: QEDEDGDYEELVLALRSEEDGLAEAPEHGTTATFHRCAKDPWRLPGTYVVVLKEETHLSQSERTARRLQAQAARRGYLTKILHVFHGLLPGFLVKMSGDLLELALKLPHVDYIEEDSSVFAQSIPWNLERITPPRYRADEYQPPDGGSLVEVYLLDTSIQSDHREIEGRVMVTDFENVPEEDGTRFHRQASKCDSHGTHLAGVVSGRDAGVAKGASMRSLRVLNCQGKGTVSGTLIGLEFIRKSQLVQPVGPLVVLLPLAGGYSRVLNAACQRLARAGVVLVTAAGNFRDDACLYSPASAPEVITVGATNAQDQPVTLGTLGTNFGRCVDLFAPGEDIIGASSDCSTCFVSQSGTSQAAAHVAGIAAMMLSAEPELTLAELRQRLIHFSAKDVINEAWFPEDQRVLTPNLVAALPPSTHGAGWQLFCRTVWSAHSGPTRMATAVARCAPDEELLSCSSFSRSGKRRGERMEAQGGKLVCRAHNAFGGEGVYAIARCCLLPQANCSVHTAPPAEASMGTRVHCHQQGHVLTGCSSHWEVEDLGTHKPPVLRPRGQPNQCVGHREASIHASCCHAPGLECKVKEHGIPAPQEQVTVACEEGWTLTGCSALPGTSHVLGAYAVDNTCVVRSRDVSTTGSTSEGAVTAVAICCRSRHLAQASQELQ

Tests used:
[1] = biological target: human PCSK9-mFc-biotin (human) (UniProt Q8NBP7); assay: competitive ELISA: antibody titrated against the binding of PCSK9 to LDL-R, A450
[2] = biological target: human PCSK9 (Proprotein Convertase Subtilisin/Kexin type 9) (human) (UniProt Q8NBP7); assay: ELISA on biotin-labeled PCSK9 captured on streptavidin, antibody diluted from human serum after 0 or 3 days at 37 C, goat anti-human-HRP
[3] = biological target: human PCSK9 (Proprotein Convertase Subtilisin/Kexin type 9) (human) (UniProt Q8NBP7); assay: ELISA, antibody titrated on human PCSK9, A450
[4] = biological target: human PCSK9 (Proprotein Convertase Subtilisin/Kexin type 9) (human) (UniProt Q8NBP7); assay: ELISA
[5] = biological target: human PCSK9 (Proprotein Convertase Subtilisin/Kexin type 9) (human) (UniProt Q8NBP7); assay: ELISA on streptavidin-captured biotin-labeled PCSK9 after incubation in human serum

- binding [1]: binds
- binding [2]: binds
- binding [3]: binds
- binding [4]: binds
- binding [5]: binds
B1: 17.72.3-uAb2-IgG4K (antibody, V domains shown)
VH: QVQLQESGPGLVKPSGTLSLTCAVSGGSIRSYNWWSWVRQPPGEGLEWIGEIHHSGTTNYNPSLKSRVTISVDKSKNQFSLKLSSVTAADTAVYYCARDYSGSYFDYWGQGTLVTVSS
VL: EVVLTQSPATLSLSPGERATLSCRTSQSLSSYVAWSQQKPGQAPRLLIYDASKRATGVPARFSGSGSGTDFTLTISNLEPEDFAVYYCHQRGNWMSSFGQGTKLEIK
